# Data as given in US7442240B2, “Alkoxylpropylisothiazolinone and preparation method and use thereof” (Ocean University of China, priority 2004, dated 2008).
# For at least one compound, name, drawing or mass did not settle the structure.
# Experiments:
# heterotrophic bacteria = test: sterilization test in industrial cooling (circulating) water system
# From the text: The compound of the present invention may be used to control and sterilize alga, fungi and bacteria in the industrial cooling water system. First, chlorine was stopped adding into the circulating water system for 3 days before administration. The total amount of the heterotrophic bacteria in the circulating water was raised, and then the 4,5-dichloro-2-methoxyethoxypropyl-4-isothiazolin-3-one was thrown in, while the discharge of the water was stopped. The amount of the heterotrophic bacteria in water and the sterilization rate was measured at 4 hours, 12 hours, 24 hours, 36 hours after the medicament was added.
# leaf spot of beet = test: drug action and field test against leaf spot of beet; type: in vivo
# From the text: Otherwise, it has also a good prevent function to the apple ring rot, tomato gray mold and cotton soreshin. For example, when the 4,5-dichloro-2-isopropoxypropyl-4-isothiazolin-3-one is used as bactericide, it is merely required 39 g pure medicament per mu ( 1/15 of a hectare) with the concentration of 250 ppm to control the leaf spot of bee, and the efficiency of the prevention and cure is up to 75.0%.
structure (smiles),measurement,setting,value
"O=c1c(Cl)c(Cl)sn1CCCOCCOc1ccc(Cl)cc1 [4,5-dichloro-2-chlorophenoxyethoxypropyl-4-isothiazolin-3-one]",control and sterilization of microorganism in industry cooling water (in words),heterotrophic bacteria,controlled and sterilized effectively
same,effect of the prevention and cure (in words),leaf spot of beet,considerable effect of the prevention and cure
